Test results taken from article PMC11557580.
No constants are given. Whether binding was seen depends on the method and setting. In cells and extracts the contact can be indirect. Some results given as binding are weak or reduced against the parent protein; the word gives no strength. Tags and fused reporters may be left off the sequences shown.

By UniProt entry, the sequences of proteins in these tests, tags left out.
UniProt P28370: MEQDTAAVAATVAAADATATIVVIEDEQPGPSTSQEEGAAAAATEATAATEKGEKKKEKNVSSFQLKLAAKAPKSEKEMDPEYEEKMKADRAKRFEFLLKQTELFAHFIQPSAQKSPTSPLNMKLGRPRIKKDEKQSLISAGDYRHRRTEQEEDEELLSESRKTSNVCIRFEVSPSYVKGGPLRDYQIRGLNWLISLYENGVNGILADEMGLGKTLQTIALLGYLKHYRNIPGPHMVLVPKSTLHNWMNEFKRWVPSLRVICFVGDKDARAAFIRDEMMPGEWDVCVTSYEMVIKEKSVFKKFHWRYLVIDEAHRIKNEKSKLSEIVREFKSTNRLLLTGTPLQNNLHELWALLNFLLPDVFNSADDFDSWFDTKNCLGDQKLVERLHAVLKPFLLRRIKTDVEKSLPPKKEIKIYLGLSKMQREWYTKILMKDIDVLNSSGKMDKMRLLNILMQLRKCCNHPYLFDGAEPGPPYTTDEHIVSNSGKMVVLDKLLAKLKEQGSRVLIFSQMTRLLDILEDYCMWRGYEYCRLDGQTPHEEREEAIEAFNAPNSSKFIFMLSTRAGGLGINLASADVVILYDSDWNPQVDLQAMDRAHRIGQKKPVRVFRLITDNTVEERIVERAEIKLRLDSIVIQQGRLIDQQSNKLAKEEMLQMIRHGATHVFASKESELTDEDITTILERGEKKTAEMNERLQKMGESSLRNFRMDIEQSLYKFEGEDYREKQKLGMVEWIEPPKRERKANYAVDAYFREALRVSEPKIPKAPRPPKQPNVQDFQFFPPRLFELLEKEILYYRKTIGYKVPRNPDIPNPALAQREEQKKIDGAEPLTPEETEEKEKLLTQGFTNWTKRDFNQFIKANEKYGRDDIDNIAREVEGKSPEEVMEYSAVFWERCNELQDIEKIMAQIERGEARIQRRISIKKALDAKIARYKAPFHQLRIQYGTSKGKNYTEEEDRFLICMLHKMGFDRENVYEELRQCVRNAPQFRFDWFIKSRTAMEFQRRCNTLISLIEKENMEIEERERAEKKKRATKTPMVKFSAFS

T1: HA-tagged NRF2 (UniProt Q16236)
T1 sequence: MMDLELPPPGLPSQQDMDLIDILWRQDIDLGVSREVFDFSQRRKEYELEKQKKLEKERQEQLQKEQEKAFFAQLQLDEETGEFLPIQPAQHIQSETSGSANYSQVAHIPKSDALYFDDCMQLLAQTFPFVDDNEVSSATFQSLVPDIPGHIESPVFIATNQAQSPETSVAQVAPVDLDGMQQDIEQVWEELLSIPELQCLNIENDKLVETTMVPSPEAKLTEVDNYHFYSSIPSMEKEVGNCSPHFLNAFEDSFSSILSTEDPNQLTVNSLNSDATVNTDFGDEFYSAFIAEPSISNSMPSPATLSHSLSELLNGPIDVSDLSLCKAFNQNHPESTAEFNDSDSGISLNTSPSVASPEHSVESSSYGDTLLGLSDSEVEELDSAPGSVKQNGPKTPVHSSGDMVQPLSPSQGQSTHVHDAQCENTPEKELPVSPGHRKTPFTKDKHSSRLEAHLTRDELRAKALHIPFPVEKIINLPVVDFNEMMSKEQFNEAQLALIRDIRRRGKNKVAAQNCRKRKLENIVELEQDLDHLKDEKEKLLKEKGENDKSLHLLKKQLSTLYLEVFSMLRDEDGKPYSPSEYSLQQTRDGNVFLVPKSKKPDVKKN

B1: HA-tagged NRF2 (protein, UniProt Q16236 1-605)
chain: T1 sequence

Legend:
[1] = biological target: T1, HA-tagged NRF2; assay: co-IP; 293T cells co-transfected with FLAG-SNF2L and HA-NRF2 plasmids for 24 h; sonicated in RIPA buffer with proteinase inhibitor; 1 mg total protein precipitated overnight with anti-HA or anti-FLAG antibodies on Protein A/G Dynabeads; five RIPA washes; western blot with anti-HA and anti-FLAG
[2] = biological target: FLAG-tagged SNF2L (UniProt P28370); assay: as above

Molecule | binding [1] | binding [2]
FLAG-tagged SNF2L (from UniProt P28370 1-1042) | binds | 
B1 |  | binds
